Assay results taken from PubChem BioAssay AID720632 (Broad Institute, 2013).
The inconclusive results got no clear call from the source; some entries with a clear call stand among them for comparison. Calls of active or inactive are those of the source. The rule behind the calls is not given here.

Sequences of proteins named here, by UniProt entry; tags and fusion partners are left off. Residues count along the entry.
UniProt P55212, 194-293 limits assumed: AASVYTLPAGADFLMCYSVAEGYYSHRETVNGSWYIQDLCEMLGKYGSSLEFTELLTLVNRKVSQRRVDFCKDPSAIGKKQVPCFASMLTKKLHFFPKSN
UniProt P55212, 24-179 limits assumed: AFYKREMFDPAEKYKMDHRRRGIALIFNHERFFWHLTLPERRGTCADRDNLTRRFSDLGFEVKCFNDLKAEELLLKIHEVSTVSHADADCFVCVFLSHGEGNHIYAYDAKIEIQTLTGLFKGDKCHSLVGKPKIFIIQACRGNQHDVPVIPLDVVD

Target: Caspase-6 (Homo sapiens) (UniProt P55212)
Test: inhibition of CASP6 peptide cleavage – biochemical, VEID-R110 fluorescence, cherry-pick, dose response (AID 720632)
Conditions: caspase-6, VEID-R110 fluorogenic substrate; at 26 µM (top of the series)

SMILES | activity change, negative = inhibition
Cn1c(SCCOc2ccccc2Cl)nnc1-c1ccncc1 | inactive: -2.61%
CCOc1cc(/C=N/Nc2nnc(C)n2N)ccc1OC(C)=O | inconclusive: -67.8%
